Source: ChEMBL document CHEMBL3988442, “University of Dundee, Small-Polar-MMV Screening Library” (2021).

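Viability assay of Plasmodium falciparum sporozoites; the read-out is not stated. The concentration is filed as 10 mM, unlikely as a test dose, so the dose is not known. Direction is inferred from retests: higher values go with lower viability. Strong results were mostly tested again. Size under these conditions: about 34,000 compounds, about 280 of them at 50% or above in at least one test.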

Values are the deposited “Percent Effect”, in %.
The controls that fix the scale are not given in the record; negative values are as filed.
The compounds are a random part of those screened.
Two or more numbers in one place are separate tests of the same structure; such repeats can differ widely.

compound	effect
O=C(N1CCCC1)N1CCC2(CC1)COCCN(Cc1cccnc1)C2.O=C(O)C(F)(F)F.O=C(O)C(F)(F)F	7.378%
Cc1nc(CN2C(=O)COC3(CCN(Cc4nccs4)CC3)C2C)cs1.O=C(O)C(F)(F)F (centres unmarked)	-16.56%
c1ccc(-n2cc(CN3CCCC3Cn3cccn3)nn2)cc1 (centres unmarked)	6.853%
Cc1cc(C)nc(N2CCC(Cn3cc(C(N)=O)cn3)CC2)n1	3.918%
O=C(N[C@@H]1CCN(c2ncc(Cl)cc2Cl)C[C@H]1O)c1cnccn1	-17.31%
CCc1nc(CN2CCCN(c3nc4ccccc4o3)CC2)no1	5.234%
Cc1csc(NC(=O)CN2CCCC(Cn3nc(C)nc3C)C2)n1 (centres unmarked)	2.481%
CCCc1nnsc1C(=O)NCC1CCN(c2ccccn2)CC1	-3.66%
COC(=O)CCN1CCCC1c1cccc2c1OCCO2 (centres unmarked)	-8.155%
CC(C)N(C(=O)Cn1c(-c2ccco2)cc2cccnc21)C(C)C.Cl	6.468%
NC(=O)CCSc1ccccc1NCc1ccc(Cl)s1	-10.51% and -5.295%
O=C(O)C(F)(F)F.O=C(O)C(F)(F)F.c1cncc(CN2CCc3ncnc(C4CC4)c3CC2)c1	7.795% and 10.82%
Cc1cc(C)c(S(=O)(=O)NCCC(=O)NCc2ccoc2)c(C)c1	-16.91%
Cc1cc(=O)[nH]c(CCNC(=O)C(c2ccc(F)cc2)N(C)C)n1 (centres unmarked)	14.5%
COCCN1CCC2(CCC1=O)CN(C1CCOCC1)CCN2C (centres unmarked)	-8.769%
COC(=O)CN1CC(c2nc(Cc3ccccc3)no2)C1.O=C(O)C(=O)O	4.841%
CNC(=O)c1sc2ncccc2c1C1CCN(C(=O)CCOC)C1 (centres unmarked)	13.92%
CN(C)C(c1ccccn1)[C@H]1CC[C@H](CNC(=O)C2CC2)CC1 (some centres unmarked)	-9.945%
O=C(O)C(F)(F)F.O=C(O)C(F)(F)F.[H][C@@]12CCN(CC3CCOCC3)C[C@]1(COc1ncccc1F)CCO2	8.766%
CCc1cc(NCCc2cnccn2)n2nc(C)c(C)c2n1	3.514%
Cc1n[nH]c(C2CN(C(=O)CCc3ccco3)CCO2)n1 (centres unmarked)	-14.99%
CCCC1CCCN(Cc2csc(-c3ncccn3)n2)CC1 (centres unmarked)	5.451% and 12.42% and 38.13%
CC(C)OCCCNS(=O)(=O)c1ccc2c(c1)NC(=O)C(C)O2 (centres unmarked)	-8.072%
CCc1c(C)nn2c(O)cc(C3CCN(C(=O)C4CC4)C3)nc12 (centres unmarked)	17.61%
Cc1cnn(CC2CCCN2C(=O)c2cc(C)no2)c1 (centres unmarked)	-6.764%
COCCn1c(=O)n(C)c(=O)c2ccc(C3CCN(C(C)=O)CC3)nc21	-7.22%
COc1ccccc1OCCNC(=O)CN1CCN(C)CC1C (centres unmarked)	-21.54%
CC(C)NC(=O)N1CCOC2(CCCN(c3ncccc3F)C2)C1.O=C(O)C(F)(F)F (centres unmarked)	-6.859%
Cc1ccc(C)c(C(=O)N2CCN(C(=O)Cc3ccccn3)CC2)c1	-11.17% and 51.55% and -16.87%
O=C(O)C(F)(F)F.O=C(O)C(F)(F)F.[H][C@@]12CCCO[C@]1([H])[C@H](N(C)Cc1ccco1)CN2CC1CCOCC1	16.58%
CN1CCC(CN2CCC3(CCCN(Cc4ccoc4)C3)C2=O)CC1.O=C(O)C(F)(F)F.O=C(O)C(F)(F)F (centres unmarked)	-2.166%
Cc1ccc(-c2nc(CN3CCc4nn(C)c(=O)cc4C3)no2)cc1	3.04%
[H][C@]12CCN(C(=O)c3ccoc3)[C@@]1([H])CC[C@H](COCc1ccncc1)O2	-0.1189%
Cc1cc(C)c(CNC(=O)N(C)Cc2nnc3n2CCC3)c(=O)[nH]1	-11.43%
[H][C@@]12CC[C@H](Oc3cccc(F)c3)[C@]1([H])CN(C(=O)c1cccnn1)C2	-11.48%
CCC(C)(C)NC(=O)CN(C)C(c1cccc(F)c1)c1ccccn1 (centres unmarked)	0.8177%
Cc1ccc(OCCN(C)C(=O)CCCC(N)=O)c(C)c1	-6.308%
CC(C)CNC(=O)C1(Cc2ccccc2-c2ccccc2)CCNC1 (centres unmarked)	-0.9051%
O=C(O)C(F)(F)F.O=C(O)C(F)(F)F.[H][C@@]12CN(Cc3ccsc3)C[C@@]1([H])N(Cc1ccncc1)C(=O)CO2	-16.55%
O=C(Cc1ccc2c(c1)OCCO2)NC1CCCCC1	-15.51% and -3.419% and -15.06%
O=C(O)C(F)(F)F.O=C(c1ccco1)N1CCOCC2(CCN(C3CCOCC3)C2)C1 (centres unmarked)	-12.06%
O=C(NCCN1CCOCC1)c1scnc1Cl	3.321%

The first 2 entries again:

* O=C(N1CCCC1)N1CCC2(CC1)COCCN(Cc1cccnc1)C2.O=C(O)C(F)(F)F.O=C(O)C(F)(F)F | 7.378%
* Cc1nc(CN2C(=O)COC3(CCN(Cc4nccs4)CC3)C2C)cs1.O=C(O)C(F)(F)F (centres unmarked) | -16.56%